Reference: PMC6412477
These are yes or no findings as the source states them, for the method shown. Binding seen in cells or lysates may run through a third protein. Some results given as binding are weak or reduced against the parent protein; the word gives no strength.

T1: Fetuin-A (Alpha-2-HS-glycoprotein, mouse) (mouse (endogenous in M2-10B4, MC3T3-E1-derived OS, Balb/c tibia)) (UniProt P29699)
T1 sequence: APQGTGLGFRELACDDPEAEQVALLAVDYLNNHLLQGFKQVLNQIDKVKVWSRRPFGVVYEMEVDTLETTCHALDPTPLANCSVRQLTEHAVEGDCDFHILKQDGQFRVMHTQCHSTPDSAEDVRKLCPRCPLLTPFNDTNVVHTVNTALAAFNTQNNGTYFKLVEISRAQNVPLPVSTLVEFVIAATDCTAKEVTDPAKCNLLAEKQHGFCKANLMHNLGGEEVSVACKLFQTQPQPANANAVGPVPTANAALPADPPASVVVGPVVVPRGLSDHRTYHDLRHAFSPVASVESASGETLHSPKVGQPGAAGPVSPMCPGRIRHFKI

T2: Fetuin-A (Alpha-2-HS-glycoprotein, human) (human (endogenous in primary ADMSC, CBMSC, BMMSC and L88/5)) (UniProt P02765)
T2 sequence: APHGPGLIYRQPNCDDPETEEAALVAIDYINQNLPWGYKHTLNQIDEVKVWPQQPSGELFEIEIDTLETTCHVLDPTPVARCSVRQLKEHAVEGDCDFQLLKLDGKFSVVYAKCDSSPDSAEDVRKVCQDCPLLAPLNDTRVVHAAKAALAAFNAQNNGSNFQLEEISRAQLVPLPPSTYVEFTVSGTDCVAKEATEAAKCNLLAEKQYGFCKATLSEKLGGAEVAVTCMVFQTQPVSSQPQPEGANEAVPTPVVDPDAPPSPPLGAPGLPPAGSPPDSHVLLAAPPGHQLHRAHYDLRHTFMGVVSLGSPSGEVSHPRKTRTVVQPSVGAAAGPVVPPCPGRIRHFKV


Assays:
[1] = target: T1, Fetuin-A (Alpha-2-HS-glycoprotein, mouse) (mouse (endogenous in M2-10B4, MC3T3-E1-derived OS, Balb/c tibia)); assay: condition: only natural growth of M2-10B4 without osteo-induction, T0 to T15; proximity ligation; Duolink in situ on M2-10B4 and L88/5 cells during natural growth without osteo-induction, T0 to T15 (Figures S3C and S4C)
[2] = target: T1, Fetuin-A (Alpha-2-HS-glycoprotein, mouse) (mouse (endogenous in M2-10B4, MC3T3-E1-derived OS, Balb/c tibia)); assay: proximity ligation; Duolink in situ on cultured cells fixed in PFA (M2-10B4, OS, primary ADMSC, CBMSC, BMMSC), anti-FGF23 and anti-Alpha-2-HS-glycoprotein overnight at 4 °C, PLUS/MINUS PLA probes; at T0 and during osteogenic induction up to T10; negative control: one antibody omitted
[3] = target: T1, Fetuin-A (Alpha-2-HS-glycoprotein, mouse) (mouse (endogenous in M2-10B4, MC3T3-E1-derived OS, Balb/c tibia)); assay: proximity ligation; Duolink in situ on mouse tibial bone tissue (Balb/c), fixed in PFA; DAPI for the cells; negative control: one antibody omitted
[4] = target: T2, Fetuin-A (Alpha-2-HS-glycoprotein, human) (human (endogenous in primary ADMSC, CBMSC, BMMSC and L88/5)); assay: proximity ligation; Duolink in situ on cultured cells fixed in PFA (M2-10B4, OS, primary ADMSC, CBMSC, BMMSC), anti-FGF23 and anti-Alpha-2-HS-glycoprotein overnight at 4 °C, PLUS/MINUS PLA probes; at T0 and during osteogenic induction up to T10; negative control: one antibody omitted
[5] = target: T2, Fetuin-A (Alpha-2-HS-glycoprotein, human) (human (endogenous in primary ADMSC, CBMSC, BMMSC and L88/5)); assay: condition: only natural growth of L88/5 without osteo-induction, T0 to T15; proximity ligation; Duolink in situ on M2-10B4 and L88/5 cells during natural growth without osteo-induction, T0 to T15 (Figures S3C and S4C)

| binding [1] | binding [2] | binding [3] | binding [4] | binding [5] | Binder |
| --- | --- | --- | --- | --- | --- |
| no binding | binds | binds |  |  | Fibroblast growth factor 23 (mouse) (protein, UniProt Q9EPC2 25-251) YPDTSPLLGSNWGSLTHLYTATARTSYHLQIHRDGHVDGTPHQTIYSALMITSEDAGSVVITGAMTRRFLCMDLHGNIFGSLHFSPENCKFRQWTLENGYDVYLSQKHHYLVSLGRAKRIFQPGTNPPPFSQFLARRNEVPLLHFYTVRPRRHTRSAEDPPERDPLNVLKPRPRATPVPVSCSRELPSAEEGGPAASDPLGVLRRGRGDARGGAGGADRCRPFPRFV |
|  |  |  | binds | no binding | Fibroblast growth factor 23 (human) (protein, UniProt Q9GZV9 25-251) YPNASPLLGSSWGGLIHLYTATARNSYHLQIHKNGHVDGAPHQTIYSALMIRSEDAGFVVITGVMSRRYLCMDFRGNIFGSHYFDPENCRFQHQTLENGYDVYHSPQYHFLVSLGRAKRAFLPGMNPPPYSQFLSRRNEIPLIHFNTPIPRRHTRSAEDDSERDPLNVLKPRARMTPAPASCSQELPSAEDNSPMASDPLGVVRGGRVNTHAGGTGPEGCRPFAKFI |
